Values from PubChem BioAssay AID743121 (NCATS, 2013).
The whole screen tested about 26,000 reagents; this is a part drawn at random. 167 of all reagents (0.63%) count as active. 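Calls are per gene from RSA p-values that are not deposited; an individual active-marked siRNA can sensitise only weakly.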 Reagents against one gene are numbered here. Not all columns of the deposit are shown.

Aim: 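Genes whose silencing strengthens cell killing by camptothecin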 (primary screen)
Cells: MDA-MB-231 cells, a human breast cancer line
Knock-down reagent: single siRNA against human genes, 20 nM siRNA (0.8 pmol per well)
Timing: 120 h (drug added 48 h after transfection, read 72 h later)
Challenge: camptothecin 20 nM (about EC30) for 72 h; vehicle 0.1% DMSO in parallel plates
Detection: 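CellTiter-Glo ATP signal, scaled to control siRNA as percent viability; sensitisation given as log2 of untreated divided by camptothecin-treated viability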
Scale: log2 vehicle/camptothecin viability: higher = stronger sensitisation to camptothecin
Hit rule: 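Active genes have an RSA gene-level p-value below 0.001, computed from the ratios of their separate siRNAs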

no.	gene symbol	reagent	log2 vehicle/camptothecin viability	activity call
1	LPAR3 (GeneID 23566)	1	-0.591	inactive
2	LPAR3 (GeneID 23566)	2	-0.0412	inactive
3	LPAR3 (GeneID 23566)	3	0.145	inactive
4	LPAR3 (GeneID 23566)	4	0.24	inactive
5	G6PC2 (GeneID 57818)	1	-0.211	inactive
6	G6PC2 (GeneID 57818)	2	0.84	inactive
7	G6PC2 (GeneID 57818)	3	-0.394	inactive
8	G6PC2 (GeneID 57818)	4	0.285	inactive
9	MINDY3 (GeneID 80013)	1	-0.376	inactive
10	MINDY3 (GeneID 80013)	2	-0.332	inactive
11	MINDY3 (GeneID 80013)	3	-0.282	inactive
12	MINDY3 (GeneID 80013)	4	-0.0787	inactive
13	HTR1D (GeneID 3352)	1	-0.166	inactive
14	HTR1D (GeneID 3352)	2	0.275	inactive
15	HTR1D (GeneID 3352)	3	-0.399	inactive
16	HTR1D (GeneID 3352)	4	0.389	inactive
17	DDR2 (GeneID 4921)	1	0.00396	inactive
18	DDR2 (GeneID 4921)	2	-0.404	inactive
19	DDR2 (GeneID 4921)	3	0.0589	inactive
20	DDR2 (GeneID 4921)	4	-0.199	inactive
21	PTGR2 (GeneID 145482)	1	-0.387	inactive
22	PTGR2 (GeneID 145482)	2	-0.472	inactive
23	PTGR2 (GeneID 145482)	3	-0.239	inactive
24	PTGR2 (GeneID 145482)	4	-0.0478	inactive
25	SERPINA4 (GeneID 5267)	1	-0.019	inactive
26	SERPINA4 (GeneID 5267)	2	-0.227	inactive
27	SERPINA4 (GeneID 5267)	3	-0.61	inactive
28	SERPINA4 (GeneID 5267)	4	-0.117	inactive
29	AQP3 (GeneID 360)	1	-0.22	inactive
30	AQP3 (GeneID 360)	2	0.00406	inactive
31	AQP3 (GeneID 360)	3	-0.527	inactive
32	AQP3 (GeneID 360)	4	-0.115	inactive
33	KIF9 (GeneID 64147)	1	0.072	inactive
34	KIF9 (GeneID 64147)	2	0.059	inactive
35	KIF9 (GeneID 64147)	3	1.38	inactive
36	KIF9 (GeneID 64147)	4	0.636	inactive
37	YAF2 (GeneID 10138)	1	-0.272	inactive
38	YAF2 (GeneID 10138)	2	-0.302	inactive
39	YAF2 (GeneID 10138)	3	0.0138	inactive
40	AKR1D1 (GeneID 6718)	1	-0.152	inactive
41	AKR1D1 (GeneID 6718)	2	0.106	inactive
42	AKR1D1 (GeneID 6718)	3	0.133	inactive
43	AKR1D1 (GeneID 6718)	4	-0.0162	inactive
44	DUSP21 (GeneID 63904)	1	0.108	inactive
45	DUSP21 (GeneID 63904)	2	0.27	inactive
46	DUSP21 (GeneID 63904)	3	-0.0702	inactive

Entries listed so far whose target name begins with Y or y (3):
gene symbol	reagent	log2 vehicle/camptothecin viability	activity call
YAF2 (GeneID 10138)	1	-0.272	inactive
YAF2 (GeneID 10138)	2	-0.302	inactive
YAF2 (GeneID 10138)	3	0.0138	inactive
